Earlier results on five molecules are cited in patent US20180042280A1, “HIGH REBAUDIOSIDE-A PLANT VARIETAL, METHODS OF EXTRACTION AND PURIFICATION THEREFROM, OF COMPOSITIONS WITH ENHANCED REBAUDIOSIDE-A CONTENT AND USES OF SAID COMPOSITION” (GLG Life Tech Corporation, priority 2015, published 2018).

The conditions of the data set: Table 1.

For `C=C1C[C@@]23CC[C@H]4[C@@](C)(CCC[C@@]4(C)C(=O)O[C@@H]4O[C@H](CO)[C@@H](O)[C@H](O)[C@H]4O[C@@H]4O[C@H](CO)[C@@H](O)[C@H](O)[C@H]4O)[C@@H]2CC[C@]1(O[C@@H]1O[C@H](CO)[C@@H](O)[C@H](O[C@@H]2O[C@H](CO)[C@@H](O)[C@H](O)[C@H]2O)[C@H]1O[C@@H]1O[C@H](CO)[C@@H](O)[C@H](O)[C@H]1O)C3` [Rebaudioside D], the Quality of taste result is listed as “Like sucrose”. On to `C=C1C[C@@]23CC[C@H]4[C@@](C)(CCC[C@@]4(C)C(=O)O)[C@@H]2CC[C@]1(O)C3` [Steviol], for which the Quality of taste entry is reported as “Very bitter”. As to `C=C1C[C@@]23CC[C@H]4[C@@](C)(CCC[C@@]4(C)C(=O)O[C@@H]4O[C@H](CO)[C@@H](O)[C@H](O)[C@H]4O)[C@@H]2CC[C@]1(O[C@@H]1O[C@H](CO)[C@@H](O)[C@H](O)[C@H]1O[C@@H]1O[C@H](CO)[C@@H](O)[C@H](O)[C@H]1O)C3` [Stevioside], the Quality of taste result was “Bitter”.

For the molecule Rebaudioside B, the Quality of taste entry is on record as “Bitter”.

Turning to Rebaudioside C, the Quality of taste result is on record as “Bitter”.
